# These are yes or no findings as the source states them, for the method shown. Binding seen in cells or lysates may run through a third protein. A yes stands for co-enrichment or nearness to the bait. Other partners may have been found.
# Chains of the proteins cited; added tags and fusions are not shown.
# UniProt Q99MQ3: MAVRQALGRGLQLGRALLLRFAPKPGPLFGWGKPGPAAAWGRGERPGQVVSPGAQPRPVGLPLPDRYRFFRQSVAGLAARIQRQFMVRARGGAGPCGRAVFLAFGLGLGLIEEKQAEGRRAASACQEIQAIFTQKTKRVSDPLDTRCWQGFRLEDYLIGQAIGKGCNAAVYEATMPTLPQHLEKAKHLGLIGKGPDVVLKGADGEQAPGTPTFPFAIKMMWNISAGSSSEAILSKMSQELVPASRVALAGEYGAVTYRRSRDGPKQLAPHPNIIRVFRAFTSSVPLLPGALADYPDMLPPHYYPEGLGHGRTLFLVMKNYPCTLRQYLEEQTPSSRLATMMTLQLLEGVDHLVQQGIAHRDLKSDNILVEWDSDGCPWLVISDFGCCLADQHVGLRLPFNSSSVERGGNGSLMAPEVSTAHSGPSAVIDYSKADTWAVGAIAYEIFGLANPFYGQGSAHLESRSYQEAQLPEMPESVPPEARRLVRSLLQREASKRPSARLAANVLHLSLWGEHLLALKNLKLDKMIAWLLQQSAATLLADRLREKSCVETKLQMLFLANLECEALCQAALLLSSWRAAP
# Molecular target: PTEN‐induced kinase 1 (PINK1), endogenous in mouse heart tissue (mouse (endogenous in heart tissue)) (UniProt Q99MQ3)
# Assay: affinity purification with mass spectrometry; mouse heart tissue immunoprecipitated with an anti-PINK1 antibody; obtained proteins analysed by mass spectrometry
binder,measurement,value
"peroxiredoxin‐2 (Prdx2), endogenous in mouse heart tissue (protein, UniProt Q61171 1-198) MASGNAQIGKSAPDFTATAVVDGAFKEIKLSDYRGKYVVLFFYPLDFTFVCPTEIIAFSDHAEDFRKLGCEVLGVSVDSQFTHLAWINTPRKEGGLGPLNIPLLADVTKSLSQNYGVLKNDEGIAYRGLFIIDAKGVLRQITVNDLPVGRSVDEALRLVQAFQYTDEHGEVCPAGWKPGSDTIKPNVDDSKEYFSKHN",binding,binds

# Source: paper PMC11705485
